The target of the test is T1, FLAG-p160 (Myb-binding protein p160) (UniProt Q7TPV4).
T1 sequence: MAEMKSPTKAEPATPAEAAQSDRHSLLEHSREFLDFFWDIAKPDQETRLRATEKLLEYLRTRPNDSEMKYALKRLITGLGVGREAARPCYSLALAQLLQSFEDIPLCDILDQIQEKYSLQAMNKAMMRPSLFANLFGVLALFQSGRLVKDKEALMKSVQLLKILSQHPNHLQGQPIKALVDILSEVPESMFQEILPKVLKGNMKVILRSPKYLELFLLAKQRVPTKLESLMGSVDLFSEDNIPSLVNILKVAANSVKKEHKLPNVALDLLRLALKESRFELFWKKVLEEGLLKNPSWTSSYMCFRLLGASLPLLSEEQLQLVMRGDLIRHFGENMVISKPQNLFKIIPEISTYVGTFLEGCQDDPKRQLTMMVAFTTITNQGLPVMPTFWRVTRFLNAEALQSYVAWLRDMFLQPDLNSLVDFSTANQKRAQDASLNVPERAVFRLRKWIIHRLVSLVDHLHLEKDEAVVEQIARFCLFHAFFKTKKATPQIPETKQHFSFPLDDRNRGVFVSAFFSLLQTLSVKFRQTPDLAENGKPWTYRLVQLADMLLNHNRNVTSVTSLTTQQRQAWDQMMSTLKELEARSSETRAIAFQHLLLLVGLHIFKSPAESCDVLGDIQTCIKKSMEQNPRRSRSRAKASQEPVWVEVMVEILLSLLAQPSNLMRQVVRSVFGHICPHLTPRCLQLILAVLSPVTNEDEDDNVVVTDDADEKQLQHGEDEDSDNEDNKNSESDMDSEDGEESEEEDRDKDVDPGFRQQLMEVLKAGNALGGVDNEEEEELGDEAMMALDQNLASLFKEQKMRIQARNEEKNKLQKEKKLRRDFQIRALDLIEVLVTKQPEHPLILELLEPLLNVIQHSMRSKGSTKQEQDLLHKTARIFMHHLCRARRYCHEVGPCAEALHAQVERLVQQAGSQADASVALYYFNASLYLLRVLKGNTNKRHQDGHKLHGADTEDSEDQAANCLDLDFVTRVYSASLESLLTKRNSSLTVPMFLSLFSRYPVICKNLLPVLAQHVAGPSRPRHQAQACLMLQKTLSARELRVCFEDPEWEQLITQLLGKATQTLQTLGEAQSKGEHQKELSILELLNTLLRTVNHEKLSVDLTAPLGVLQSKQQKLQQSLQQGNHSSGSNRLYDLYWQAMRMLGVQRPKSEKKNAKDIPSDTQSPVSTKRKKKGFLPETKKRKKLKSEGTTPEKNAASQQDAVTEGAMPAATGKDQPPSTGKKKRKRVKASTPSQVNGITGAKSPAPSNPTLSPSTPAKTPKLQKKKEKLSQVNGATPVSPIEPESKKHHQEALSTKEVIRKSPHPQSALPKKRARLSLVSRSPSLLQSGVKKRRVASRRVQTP
Kind of test: far-Western, overlay or dot blot; FLAG-p160 immunoprecipitated from transfected 293T cells, fractionated by SDS-PAGE and transferred to nitrocellulose; blot probed with bacterially-produced purified GST-VHL (GST as control probe, FLAG empty vector as control lane); both purified.

Chains of the proteins cited; added tags and fusions are not shown.
UniProt P40337: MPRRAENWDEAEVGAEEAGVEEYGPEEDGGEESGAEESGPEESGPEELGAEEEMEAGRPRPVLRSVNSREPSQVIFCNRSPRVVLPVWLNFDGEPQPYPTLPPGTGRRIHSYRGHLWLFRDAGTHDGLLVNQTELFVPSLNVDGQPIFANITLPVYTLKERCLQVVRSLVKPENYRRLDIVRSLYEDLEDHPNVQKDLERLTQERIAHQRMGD

The record followed here is publication PMC3046137.

Results are given in words; binding and its absence hold for the method and conditions named. Some binding calls cover weakened binding; strength is not graded here. Tags and fused reporters may be left off the sequences shown.

Turning to GST-VHL (from UniProt P40337 1-213), the binding result is “binds”.
